This note sets out measurements from article PMC10345109.

Protein sequences, listed by entry. Tags and fused reporters are not part of them. Lines headed by an entry give the natural chain unless they say otherwise; changes in a name come on top. Chains listed by the source or under a name are the forms on record and can include a tag or linker.
UniProt O96019: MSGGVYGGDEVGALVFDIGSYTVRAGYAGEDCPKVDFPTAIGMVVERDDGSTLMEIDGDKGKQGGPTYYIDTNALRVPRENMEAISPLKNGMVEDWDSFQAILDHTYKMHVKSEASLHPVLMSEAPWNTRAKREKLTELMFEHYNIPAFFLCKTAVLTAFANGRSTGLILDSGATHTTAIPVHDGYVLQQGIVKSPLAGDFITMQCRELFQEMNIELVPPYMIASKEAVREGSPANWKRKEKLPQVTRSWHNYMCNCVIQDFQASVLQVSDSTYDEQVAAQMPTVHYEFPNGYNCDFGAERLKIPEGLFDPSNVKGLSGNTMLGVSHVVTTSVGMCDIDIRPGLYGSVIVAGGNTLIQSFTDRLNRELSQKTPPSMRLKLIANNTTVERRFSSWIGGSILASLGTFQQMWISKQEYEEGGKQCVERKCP
ACTL6A ΔHR (hydrophobic region) mutant (Δ319–324) (O96019, form named): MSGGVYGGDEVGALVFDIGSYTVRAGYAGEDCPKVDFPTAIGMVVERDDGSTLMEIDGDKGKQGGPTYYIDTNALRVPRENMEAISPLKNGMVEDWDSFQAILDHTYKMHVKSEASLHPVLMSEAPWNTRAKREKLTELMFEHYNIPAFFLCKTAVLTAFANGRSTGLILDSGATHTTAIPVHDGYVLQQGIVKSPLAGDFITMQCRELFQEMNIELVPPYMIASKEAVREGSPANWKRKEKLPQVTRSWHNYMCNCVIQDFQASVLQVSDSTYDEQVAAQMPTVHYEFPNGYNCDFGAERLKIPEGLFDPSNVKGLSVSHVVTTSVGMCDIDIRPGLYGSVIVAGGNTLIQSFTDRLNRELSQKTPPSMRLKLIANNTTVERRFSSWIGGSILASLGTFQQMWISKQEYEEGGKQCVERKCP

These are yes or no findings as the source states them, for the method shown. Binding seen in cells or lysates may run through a third protein. Some results given as binding are weak or reduced against the parent protein; the word gives no strength.

The target of assay [1] is T1, Nuclear factor (erythroid-derived 2)-like 2 (NRF2) (human (endogenous in SNU638)) (UniProt Q16236).
T1 sequence: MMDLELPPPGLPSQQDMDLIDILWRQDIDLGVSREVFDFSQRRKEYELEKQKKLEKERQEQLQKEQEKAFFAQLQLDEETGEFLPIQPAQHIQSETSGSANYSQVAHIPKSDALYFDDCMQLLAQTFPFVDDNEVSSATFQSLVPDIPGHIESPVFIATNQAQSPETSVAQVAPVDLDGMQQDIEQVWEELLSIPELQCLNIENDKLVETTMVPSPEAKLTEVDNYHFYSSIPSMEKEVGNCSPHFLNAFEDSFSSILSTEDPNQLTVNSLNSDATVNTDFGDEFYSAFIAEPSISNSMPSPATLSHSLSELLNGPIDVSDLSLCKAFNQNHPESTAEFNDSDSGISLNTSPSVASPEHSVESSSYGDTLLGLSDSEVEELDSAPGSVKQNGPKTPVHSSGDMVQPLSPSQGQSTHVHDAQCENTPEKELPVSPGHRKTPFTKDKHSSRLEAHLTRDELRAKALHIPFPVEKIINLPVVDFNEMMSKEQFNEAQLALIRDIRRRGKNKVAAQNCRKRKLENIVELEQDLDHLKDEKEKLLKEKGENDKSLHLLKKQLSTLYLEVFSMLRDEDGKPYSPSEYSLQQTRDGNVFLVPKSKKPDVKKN
As to the kind of experiment: co-IP; endogenous proteins in SNU638 lysate (0.1% Triton, 0.1% NP-40, 50 mM Tris-Cl pH 7.5, 150 mM NaCl); 1 mg protein with anti-NRF2 or anti-ACTL6A antibody at 4 °C overnight, Protein A/G beads; IgG as control.

Assay [2] deals with ACTL6A ΔHR (hydrophobic region) mutant (Δ319–324) (human) (UniProt O96019). As to the kind of experiment: co-IP; lysate of SNU638 cells transfected with flag-tagged ACTL6A-WT, ACTL6A-ΔHR or pcDNA3.1 vector, incubated with M2 (flag) beads at 4 °C overnight; endogenous NRF2 detected by blot.

For “Actin-like protein 6A (ACTL6A) (from UniProt O96019 1-429)”, the binding result in assay [1] was “binds”.

B1: Nuclear factor (erythroid-derived 2)-like 2 (NRF2) (protein, UniProt Q16236 1-605)
chain: T1 sequence
Regarding B1, the binding entry in assay [2] was “no binding”.
